Source: PubChem BioAssay AID1347423 (Functional Genomics Laboratory (NCATS/FGL), 2020)
Among all 52,000 sequences or so, about 210 (0.4%) were called active.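 How the source made its calls: active means gene whose silencing raises cell survival under the drug, median off-target-corrected z-score across its silencing RNAs 2 or more; inactive means the rest.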 The list shows a part of the results.

Assay: Resistance to Poly (ADP-Ribose) Polymerase inhibitor: Gene Identification via Genome-wide siRNA Screen
Details: mouse BRCA2 R2336H ES cells, olaparib, CellTiter-Glo viability; active compounds read high
Outline: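 Mouse BRCA2 R2336H ES cells were reverse-transfected with siRNA (20 nM final), treated at 48 h with 500 nM olaparib, and read by CellTiter-Glo after 72 h. Scores: MAD-based z per siRNA, median per gene, seed off-target correction.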

Sequence	z-score
GGAGUACCUGUGGUGCAUUTT against Ahcy	inactive: -0.164
CCAACAAUAAACGAGGUCCTT against Mnt	inactive: -0.6
GAAGUACAAGGUAGAGUACTT against Mgst3	inactive: -1.47
GCCUGUAUACAUAAGUAAATT against Syngr4	inactive: -0.759
GGGUUGUCCGGGAGAAAGATT against C530024P05Rik	inactive: -1.93
GGCCUUUUCAUUGUUUGACTT against Myl4	inactive: 0.267
GGACUCCUUUAAGCCACUUTT against Prkag1	inactive: 0.583
GGCACAGACCUCACAGUUATT against Olfr65	inactive: -1.39
GCUGGUGAUGACGUGUAUCTT against Viaat	inactive: 0.956
GGGCAGACAGUUUACAGAATT against Aco1	inactive: -0.463
GGCCGGCUAAAGGCUUUUUTT against Olfr1019	inactive: -0.363
GGUUUAAUUCUUGUCUUGUTT against Pvt1	inactive: -1.38
GCUUCCCGCUAUGAGUUCATT against D430041B17	inactive: 0.805
GGACAAAGUAUUUGUGACCTT against Cd3d	inactive: -1.59
GGCCCAAGAUUUCAAUUAGTT against 9130230L23Rik	inactive: 0.285
GCCACUCACCUGUAGUUCUTT against C030030A07Rik	inactive: -1.51
CCUUUUCAGCAGAAUAUCGTT against Ifnar1	inactive: -0.761
GGGAAUCUAAGCUGUAUUUTT against Lyzl1	inactive: -0.58
GGUAGCACUUACGUGAAAUTT against Mbd2	inactive: -0.333
GGAGAUGGAGUGAAUUGGCTT against 4933404G15Rik	inactive: 0.893
GGAAACUACCUACUACCCGTT against 1600002H07Rik	inactive: 2.24
GCAACAAUCUAACCUCAGATT against Mela	inactive: -0.637
GGUCGAACUUCUGUGCCAUTT against Slc39a8	inactive: 0.173
GGGCAAGGGCAAGAAAUCUTT against Hist1h1t	inactive: 2.44
GCCUUCCUAGAGCUCUUUGTT against Olfr792	inactive: -2.5
GGAGUUCCAUAGCUGUCAATT against Adra1b	inactive: -1.05

An excerpt of these results, bar-delimited:
Sequence | z-score
GAAGUACAAGGUAGAGUACTT against Mgst3 | inactive: -1.47
CCUUUUCAGCAGAAUAUCGTT against Ifnar1 | inactive: -0.761

Following part.

Sequence	z-score
GAUGAAAGCUACAAUGAAGTT against Srpx2	inactive: 0.127
CGUCGUAUAAAUCGUAAAGTT against Pols	inactive: 0.886
GGAAGUGGACCAUUUCUUUTT against Olfr1359	inactive: 0.342
CGAGCAUUUGAAUCGACUATT against Vti1b	inactive: 0.404
GCUGUCUACCAAAGUGACGTT against Cdh1	inactive: -0.965
GGAAGAGUGUUUAAACUAUTT against Takrp	inactive: -1.06
GGUACAUCAGCAACUUCGATT against 1110032N12Rik	inactive: 0.287
GGUCAUCAAAUUCCUAAUCTT against E430036I04Rik	inactive: -0.025
GGAAGAACUAACAUUUGAGTT against 4732465J09Rik	inactive: 0.703
GCGAUGUCAAUCAAUUCUGTT against Gpr37l1	inactive: 0.591
GGCUUGUCAUGAAUUUUUATT against G431002C21Rik	inactive: 0.681
GGAAUUUUUAGGAAUGGUGTT against Slc35f2	inactive: -0.268
GCUCUAAGCUUCUAGAUCATT against Csf3	inactive: 0.567
CCUGACUUCCCGCUAUGAGTT against 1500005N04Rik	inactive: 0.441
CGGGAAAGAGAUCAUCCCUTT against Nr1i2	inactive: 0.0162
GGACUGAGUCAGAUUUACATT against Foxn2	inactive: -0.0849
GGGCCAAGAUACCAAGAGUTT against D2Wsu81e	inactive: -0.938
GCUGUAUGAUUGCCGAAAUTT against Nsddr	inactive: 0.975
GGACUUUGUGAAGGACUCUTT against BC023835	inactive: -1.14
GGAUAGCUGCCAACACUACTT against BC048937	inactive: -0.0419
GCUCCUUUGGCCAUAUUAATT against Dnm2	inactive: -1.38
CCAGAUGUCAACCAAUAUATT against Vmd2	inactive: 0.0474
GGGAAUCAAAUUCGUCUGCTT against 4632417N05Rik	inactive: 0.375
CGCCUUGUAUCUUUUACAUTT against Taf1a	inactive: -0.345
CCAAAGUGGACAAAUUAGUTT against Pank2	inactive: -0.59
GGACAAGAGAACAACUAGUTT against Mkl2	inactive: 0.106
